PubChem BioAssay AID1159584, Peter MacCallum Cancer Centre, 2016

Aim: 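Genes that CDH1-null MCF10A cells selectively depend on to survive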 (primary screen)
Cell system: human MCF10A breast epithelial cells, parental and CDH1-null
Knock-down reagent: siRNA against human genes
Detection: 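ATP luminescence (CellTiter-Glo) viability per line relative to mean mock wells over all plates, and the ratio of CDH1-null to parental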
Scale: CDH1-null / parental viability ratio: higher = CDH1-null cells survive relatively better than parental; CDH1-null viability vs mock: higher = more viable CDH1-null cells; parental viability vs mock: higher = more viable parental cells
Shown is a random part of about 18,000 reagents. Not given: the amount of reagent, the time to read-out.

| gene symbol | CDH1-null / parental viability ratio | CDH1-null viability vs mock (fraction of mock) | parental viability vs mock (fraction of mock) |
| --- | --- | --- | --- |
| CFAP119 (cilia and flagella associated protein 119) | 0.89 | 0.73 | 0.82 |
| UBFD1 (ubiquitin family domain containing 1) | 0.91 | 0.88 | 0.97 |
| DNASE2 (deoxyribonuclease 2, lysosomal) | 0.95 | 0.82 | 0.86 |
| RIC8A (RIC8 guanine nucleotide exchange factor A) | 0.86 | 0.94 | 1.09 |
| MED19 (mediator complex subunit 19) | 1.11 | 0.62 | 0.56 |
| MUC2 (mucin 2, oligomeric mucus/gel-forming) | 0.83 | 0.55 | 0.66 |
| MSRB2 (methionine sulfoxide reductase B2) | 1.21 | 0.92 | 0.76 |
| TMEM134 (transmembrane protein 134) | 1.02 | 0.94 | 0.92 |
| CFAP126 (cilia and flagella associated protein 126) | 0.85 | 0.51 | 0.6 |
| DTX3L (deltex E3 ubiquitin ligase 3L) | 1 | 0.94 | 0.94 |
| APH1B (aph-1B gamma-secretase subunit) | 1.4 | 0.6 | 0.43 |
| OR4N4 (olfactory receptor family 4 subfamily N member 4) | 0.85 | 0.5 | 0.59 |

Copied from the list:
RIC8A (RIC8 guanine nucleotide exchange factor A), CDH1-null / parental viability ratio = 0.86
OR4N4 (olfactory receptor family 4 subfamily N member 4), CDH1-null viability vs mock (fraction of mock): 0.5
Result of DTX3L (deltex E3 ubiquitin ligase 3L) in “parental viability vs mock (fraction of mock)”: 0.94
MED19 (mediator complex subunit 19), CDH1-null / parental viability ratio: 1.11
CFAP126 (cilia and flagella associated protein 126), CDH1-null viability vs mock (fraction of mock): 0.51

The list goes on.
| gene symbol | CDH1-null / parental viability ratio | CDH1-null viability vs mock (fraction of mock) | parental viability vs mock (fraction of mock) |
| --- | --- | --- | --- |
| STPG4 (sperm-tail PG-rich repeat containing 4) | 0.89 | 0.66 | 0.74 |
| SOWAHC (sosondowah ankyrin repeat domain family member C) | 1 | 0.43 | 0.43 |
| CP (ceruloplasmin) | 0.99 | 1.14 | 1.15 |
| ZP3 (zona pellucida glycoprotein 3) | 1.27 | 1.12 | 0.88 |
| GARIN1B (golgi associated RAB2 interactor 1B) | 1.08 | 0.98 | 0.91 |
| TMEFF1 | 1.16 | 1 | 0.86 |
| TPTE2 | 1.25 | 0.86 | 0.69 |
| DCT (dopachrome tautomerase) | 1.18 | 1.13 | 0.96 |
| CD177 (CD177 molecule) | 1.15 | 0.68 | 0.59 |
| MEGF6 (multiple EGF like domains 6) | 1.12 | 0.38 | 0.34 |
| SLC60A1 | 1.04 | 0.98 | 0.94 |
| PCCB (propionyl-CoA carboxylase subunit beta) | 1.03 | 1.01 | 0.98 |
| AFF4 (ALF transcription elongation factor 4) | 0.91 | 0.73 | 0.8 |
| CASP5 (caspase 5) | 1.23 | 0.74 | 0.6 |
| C1orf54 (chromosome 1 open reading frame 54) | 1.15 | 0.94 | 0.82 |
| PDE1C (phosphodiesterase 1C) | 0.96 | 0.82 | 0.85 |
